Measurements published in patent US20080020377A1, “Peptide-Based Method for Monitorting Gene Expression in a Host Cell” (priority 2004, published 2008).
Entries after “also recorded” stand apart in the source; their conditions may differ. Read-outs that look alike come from different tables or passages of the source. At least one compound was matched to its structure with a doubt left.

Protein sequences, listed by entry. Tags and fused reporters are not part of them.
UniProt P04483, whole entry F86A: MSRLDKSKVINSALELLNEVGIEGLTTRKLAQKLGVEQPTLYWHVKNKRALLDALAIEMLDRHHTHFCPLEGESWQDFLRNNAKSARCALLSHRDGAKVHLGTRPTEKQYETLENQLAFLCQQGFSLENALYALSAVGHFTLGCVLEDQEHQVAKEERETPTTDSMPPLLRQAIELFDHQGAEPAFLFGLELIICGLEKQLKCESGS
UniProt P04483, whole entry N82A: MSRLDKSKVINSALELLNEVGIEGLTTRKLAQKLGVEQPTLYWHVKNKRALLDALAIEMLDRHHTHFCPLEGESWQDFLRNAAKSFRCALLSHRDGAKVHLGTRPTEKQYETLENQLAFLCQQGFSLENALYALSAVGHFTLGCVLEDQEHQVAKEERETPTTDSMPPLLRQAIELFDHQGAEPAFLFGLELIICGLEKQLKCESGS
UniProt P04483, whole entry T103A: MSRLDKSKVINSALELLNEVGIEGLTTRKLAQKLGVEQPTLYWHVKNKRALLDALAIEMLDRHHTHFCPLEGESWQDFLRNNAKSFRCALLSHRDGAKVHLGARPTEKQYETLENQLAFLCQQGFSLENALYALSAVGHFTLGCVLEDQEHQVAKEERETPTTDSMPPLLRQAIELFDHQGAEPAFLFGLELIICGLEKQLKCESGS
UniProt P04483, whole entry H100Y: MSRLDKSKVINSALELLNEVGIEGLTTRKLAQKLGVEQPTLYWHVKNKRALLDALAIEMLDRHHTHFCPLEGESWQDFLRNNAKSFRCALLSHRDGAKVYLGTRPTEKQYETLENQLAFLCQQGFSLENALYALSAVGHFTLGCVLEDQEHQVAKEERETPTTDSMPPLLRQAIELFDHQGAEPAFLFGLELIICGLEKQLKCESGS
UniProt P04483, whole entry P105A: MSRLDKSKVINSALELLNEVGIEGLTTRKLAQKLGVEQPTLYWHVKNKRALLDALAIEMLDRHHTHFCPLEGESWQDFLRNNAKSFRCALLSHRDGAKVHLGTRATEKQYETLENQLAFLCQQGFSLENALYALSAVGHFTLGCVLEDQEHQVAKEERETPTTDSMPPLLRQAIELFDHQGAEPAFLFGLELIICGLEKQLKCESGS
UniProt P04483, whole entry H64Y: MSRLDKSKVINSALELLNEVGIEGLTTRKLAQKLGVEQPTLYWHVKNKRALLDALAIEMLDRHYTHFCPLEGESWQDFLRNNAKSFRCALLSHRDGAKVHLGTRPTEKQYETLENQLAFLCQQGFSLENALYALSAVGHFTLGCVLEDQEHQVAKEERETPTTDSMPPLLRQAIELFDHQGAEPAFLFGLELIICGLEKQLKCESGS
UniProt P04483, whole entry E114G: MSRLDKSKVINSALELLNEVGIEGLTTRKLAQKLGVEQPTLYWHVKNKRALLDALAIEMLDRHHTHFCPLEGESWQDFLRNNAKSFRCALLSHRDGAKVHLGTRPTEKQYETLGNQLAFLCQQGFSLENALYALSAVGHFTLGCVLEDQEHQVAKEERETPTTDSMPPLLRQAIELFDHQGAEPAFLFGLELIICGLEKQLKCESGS
UniProt P04483, whole entry D53G: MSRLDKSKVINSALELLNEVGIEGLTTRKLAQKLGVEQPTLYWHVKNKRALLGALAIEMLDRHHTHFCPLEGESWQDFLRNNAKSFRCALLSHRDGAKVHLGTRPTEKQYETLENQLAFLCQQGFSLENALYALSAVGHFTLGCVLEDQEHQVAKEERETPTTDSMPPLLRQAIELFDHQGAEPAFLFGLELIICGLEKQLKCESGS
UniProt P04483, whole entry E147A: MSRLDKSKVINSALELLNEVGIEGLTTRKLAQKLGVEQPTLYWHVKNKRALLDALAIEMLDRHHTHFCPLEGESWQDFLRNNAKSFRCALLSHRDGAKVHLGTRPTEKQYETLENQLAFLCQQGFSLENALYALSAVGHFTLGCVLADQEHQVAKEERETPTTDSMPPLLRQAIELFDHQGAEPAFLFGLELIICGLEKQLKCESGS

Columns and labels:
Assay type in all cases: cell-based
TetR(B) = molecular target: T1, TetR(B) (Escherichia coli, UniProt P04483); conditions: TetR(B) wt, pWH510 derivative, +tc
T1 construct: expressed in transfected cells; host or cells: E. coli DH5α(λtet50) with pWH510lacIq (pWH1411lacIq in the medium-level experiments)

TetR(B) F86A = molecular target: T2, TetR(B) F86A (Escherichia coli, UniProt P04483, F86A)
T2 construct: expressed in transfected cells; host or cells: E. coli DH5α(λtet50), pWH510lacIq derivative

TetR(B) N82A = molecular target: T3, TetR(B) N82A (Escherichia coli, UniProt P04483, N82A)
T3 construct: expressed in transfected cells; host or cells: E. coli DH5α(λtet50), pWH510lacIq derivative

TetR(B) T103A = molecular target: T4, TetR(B) T103A (Escherichia coli, UniProt P04483, T103A); conditions: +tc
T4 construct: expressed in transfected cells; host or cells: E. coli DH5α(λtet50), pWH510lacIq derivative

TetR(B) H100Y = molecular target: T5, TetR(B) H100Y (Escherichia coli, UniProt P04483, H100Y); conditions: +tc
T5 construct: expressed in transfected cells; host or cells: E. coli DH5α(λtet50), pWH510lacIq derivative

TetR(B) P105A = molecular target: T6, TetR(B) P105A (Escherichia coli, UniProt P04483, P105A)
T6 construct: expressed in transfected cells; host or cells: E. coli DH5α(λtet50), pWH510lacIq derivative

TetR(B) H64Y = molecular target: T7, TetR(B) H64Y (Escherichia coli, UniProt P04483, H64Y); conditions: for inducibility of TetR mutant H64Y: inducible = at least three fold increase in β-galactosidase activity compared to the repressed state
T7 construct: expressed in transfected cells; host or cells: E. coli DH5α(λtet50), pWH510lacIq derivative

TetR(B) E114G = molecular target: T8, TetR(B) E114G (Escherichia coli, UniProt P04483, E114G)
T8 construct: expressed in transfected cells; host or cells: E. coli DH5α(λtet50), pWH510lacIq derivative

TetR(B) D53G = molecular target: T9, TetR(B) D53G (Escherichia coli, UniProt P04483, D53G); conditions: +tc
T9 construct: expressed in transfected cells; host or cells: E. coli DH5α(λtet50), pWH510lacIq derivative

TetR(B) E147A = molecular target: T10, TetR(B) E147A (Escherichia coli, UniProt P04483, E147A); conditions: +tc
T10 construct: expressed in transfected cells; host or cells: E. coli DH5α(λtet50), pWH510lacIq derivative

[1] = inducible = at least three fold increase in β-galactosidase activity compared to the repressed state

**Q.** For `CN(C)[C@@H]1C(O)=C(C(N)=O)C(=O)[C@@]2(O)C(O)=C3C(=O)c4c(O)cccc4[C@@](C)(O)[C@H]3C[C@@H]12` [tc, tetracycline], which β-Galactosidase activity (TetR(B)) is on record?
**A.** Its β-Galactosidase activity is 4881 ± 384 MU.

**Q.** And the β-Galactosidase activity (TetR(B) F86A; TetR(B) F86A, +tc)?
**A.** The β-Galactosidase activity was 480 ± 33 MU.

**Q.** And the “inducibility of TetR mutant F86A” value (TetR(B) F86A; [1])?
**A.** Its value is “not or only slightly inducible”.

**Q.** What about the β-Galactosidase activity (TetR(B) N82A; TetR(B) N82A, +tc) of the same compound?
**A.** The β-Galactosidase activity was 125 ± 2.4 MU.

**Q.** What about the “inducibility of TetR mutant N82A” value (TetR(B) N82A; [1]) of the same compound?
**A.** Its value is “not or only slightly inducible”.

**Q.** What about the β-Galactosidase activity (TetR(B) T103A) of the same compound?
**A.** Its β-Galactosidase activity is 802 ± 174 MU.

**Q.** What about the β-Galactosidase activity (TetR(B) H100Y) of the same compound?
**A.** The β-Galactosidase activity was 56 ± 8.3 MU.

**Q.** What about the β-Galactosidase activity (TetR(B) P105A; TetR(B) P105A, +tc) of the same compound?
**A.** The β-Galactosidase activity was 4085 ± 35 MU.

**Q.** And the “inducibility of TetR mutant P105A” value (TetR(B) P105A; [1])?
**A.** The value was “inducible”.

**Q.** And the β-Galactosidase activity (TetR(B) H64Y; TetR(B) H64Y, +tc)?
**A.** Its β-Galactosidase activity is 47 ± 21 MU.

**Q.** What about the “inducibility of TetR mutant H64Y” value (TetR(B) H64Y) of the same compound?
**A.** The value was “not or only slightly inducible”.

**Q.** What about the “inducibility of TetR mutant H64Y” value (TetR(B) H64Y; listed as tetracycline) of the same compound?
**A.** The value was “not inducible; also recorded: not or only slightly inducible”.

**Q.** And the β-Galactosidase activity (TetR(B) E114G; TetR(B) E114G, +tc)?
**A.** Its β-Galactosidase activity is 1574 ± 196 MU.

**Q.** What about the “inducibility of TetR mutant E114G” value (TetR(B) E114G; [1]) of the same compound?
**A.** Its value is “inducible”.

**Q.** And the β-Galactosidase activity (TetR(B) D53G)?
**A.** The β-Galactosidase activity was 1740 ± 319 MU.

**Q.** And the β-Galactosidase activity (TetR(B) E147A)?
**A.** The β-Galactosidase activity was 526 ± 185 MU.
